Results taken from patent US6686394B1, “Aryl-chloro-ethyl ureas” (Sovar, Societe en Commandite, priority 1999, dated 2004).

Test system: HT-29
Assay: Cytotoxicity assay C50/G50, MTT or resazurin (Example 16)
Type: cell-based, human
Method: Cell culture. Tumor cell lines (B16-F0, Caco-2, DU-145, HT-29, MDA-MB-231 and other cell lines described so far in the patent application) were obtained from the American Type Culture Collection (ATCC HTB-26; Bethesda, Md.). Cells were grown in RPMI 1640 medium supplemented with 10% fetal bovine serum (Hyclone, Road Logan, Utah) and were cultured in a humidified atmosphere at 37° C. in 5% CO2.
Drugs: All drugs were dissolved in DMSO and the final concentration of DMSO in the culture medium was maintained at 0.5% (v/v).
Cytotoxiciy assays. At day-1, tumor cells in suspension in 100 μl were plated in microtiter plates (96 wells). On day-0, tumor cells were treated by addition of escalating concentrations of the drug (100 μl solution). On that day, the number of living cells was determined in wells that were untreated. This was performed in order to be able to evaluate the toxic concentration of the drug needed to kill 50% of the cellular population present at the beginning of the experiments. This value is represented by C50 in the table. At day-3, the number of living cells is determined using either MTT or resazurin assays. Growth inhibition activity of these compounds was expressed as the concentration of CAU inhibiting cell growth by 50% G50 in the following table
The MTT assay was as described above in Example 1. The Resazurin assay was performed as follows:
Aspirate the supernatant (cell suspension: centrifuge first)
Add 100 μL NaCl 0.9% (saline)
Add 50 μL RZ (resazurin 125 μg/ml/PBS: RPMI without FBS; 1:4) Incubate at 37° C.
Collect fluorescence data at different time.

Structure (SMILES)	C50/G50
CCCCCCc1ccc(NC(=O)NC(CCl)CCC)cc1 (racemic) [Example 14]	1.90
CCCCCCc1ccc(NC(=O)N[C@H](C)CCl)cc1 [Example 6]	1.38
CCCCCCc1ccc(NC(=O)N[C@@H](C)CCl)cc1 [Example 7]	2.51
C[C@@H](CCl)NC(=O)Nc1ccc(C2CCCCC2)cc1 [Example 8]	1.40
C[C@H](CCl)NC(=O)Nc1ccc(C2CCCCC2)cc1 [Example 9]	1.48
CCCCCCc1ccc(NC(=O)N[C@H](CC)CCl)cc1 [Example 10]	1.77
CCCCCCc1ccc(NC(=O)N[C@@H](CC)CCl)cc1 [Example 11]	1.58
CC[C@H](CCl)NC(=O)Nc1ccc(C2CCCCC2)cc1 [Example 12]	1.68
CC[C@@H](CCl)NC(=O)Nc1ccc(C2CCCCC2)cc1 [Example 13]	2.35
